Results reported in PMC7819943, “Rice protein-binding microarrays: a tool to detect cis-acting elements near promoter regions in rice”.
The other results are listed elsewhere or left out.

By UniProt entry, the sequences of proteins in these tests, tags left out.
UniProt Q0JBA9, entry or part of it: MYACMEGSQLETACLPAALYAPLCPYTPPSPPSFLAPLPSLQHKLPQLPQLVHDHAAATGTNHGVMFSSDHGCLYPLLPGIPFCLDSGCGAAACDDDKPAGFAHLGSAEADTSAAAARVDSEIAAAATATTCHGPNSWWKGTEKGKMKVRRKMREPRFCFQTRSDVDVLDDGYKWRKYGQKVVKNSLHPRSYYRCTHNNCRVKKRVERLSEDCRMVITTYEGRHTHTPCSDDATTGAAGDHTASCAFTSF

Each sequence was assayed against OsWRKY34 (Oryza sativa, UniProt Q0JBA9 1-250) (assay: protein-binding microarray (RPBM); PBS, 2% BSA, 51.3 ng/ul salmon testes DNA, 50 uM zinc acetate, 200 nM TF, 25 C, 1 h; high values mean tight binding). Conditions: protein: recombinant; tags: N-terminal polyhistidine and DsRed monomer fusion (pET32a); label: CyDye5-dUTP incorporated in the synthesized complementary strand; 3' TTTTT single-stranded linker to array surface; dsDNA, one strand shown.
Summary of the method: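 A custom Agilent array was converted to double-stranded form by primer extension with Cy5-dUTP and blocked with 2% BSA. Protein at 200 nM in PBS with 2% BSA, salmon testes DNA and 50 µM zinc acetate was applied for 1 h at 25 °C, followed by washing. The proteins were polyhistidine–DsRed N-terminal fusions of transcription factors, expressed in E. coli BL21-CodonPlus and Ni–NTA-purified. The binding signal is per-feature fluorescence intensity (arbitrary units) from an Axon 4000B scanner.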
“CCCTTTCTTCACCATTTACTACTACTGCTCATCCTTCAAACGGAGTCACCTAGTGCAG” was tested, and the binding signal was 8240 fluorescence intensity (a.u.).
With “ACACCCTCACATGTCCGTGCCTAACAGCCATCACACACGTCGGAGTCACCTAGTGCAG” the binding signal was 9780 fluorescence intensity (a.u.).
For “ATTTGCAGTGATCGTTTCTATCTCCGGCGACGTTTCTTGACGGAGTCACCTAGTGCAG”, the binding signal was 8430 fluorescence intensity (a.u.).
For “AATTTGCAAGCCACATGTTCTGGTGACTTTCACTCACTCACGGAGTCACCTAGTGCAG”, the binding signal was 9870 fluorescence intensity (a.u.).
“CGATAAAGAAAAATGTGTTGTGTGGGTGACTGTTTGACTGCGGAGTCACCTAGTGCAG” was tested, and the binding signal was 10900 fluorescence intensity (a.u.).
With “TAATCTCGACTGCTCTCGCTCCTTGATCTGGTCTTCTTTTCGGAGTCACCTAGTGCAG” the binding signal was 11900 fluorescence intensity (a.u.).
With “CACTCTCTCTCTCTCTCACCTCCCTGACACTAAACTGGTTCGGAGTCACCTAGTGCAG” the binding signal was 8350 fluorescence intensity (a.u.).
With “TGAACAACTTTTCGTCATGTCTAACTTCCCTTTCAGCAAACGGAGTCACCTAGTGCAG” the binding signal was 8350 fluorescence intensity (a.u.).
“TTTTTTCTCGCACTGTTTAACCACTCGTCTTATTTAAAAACGGAGTCACCTAGTGCAG” was tested, and the binding signal was 8330 fluorescence intensity (a.u.).
“CTTGCTTTCTTTCACTGCTGCCATTCACAAATTGGCAAGACGGAGTCACCTAGTGCAG” was tested, and the binding signal was 8490 fluorescence intensity (a.u.).
In the case of “CTCTCCTGCCCACGCTACTGTTCATCTTCCAGCGCCAGACCGGAGTCACCTAGTGCAG”, the binding signal is reported as 9820 fluorescence intensity (a.u.).
For “CTCTCTCTCTCACTGTCCACATCTCTCCAACAAGAGAAATCGGAGTCACCTAGTGCAG”, the binding signal was 8860 fluorescence intensity (a.u.).
“TCCGATAACTCCACCGCCGCTCCACCTCCAAGTCCAGTTACGGAGTCACCTAGTGCAG” was tested, and the binding signal was 16300 fluorescence intensity (a.u.).
For “ATGACACCAACGAATCGATTTTATGTATCCGCCATTGCCTCGGAGTCACCTAGTGCAG”, the binding signal was 9580 fluorescence intensity (a.u.).
With “GTTGACGATTAAAACAAACCAGTGTTTGACTTTCTTACTGCGGAGTCACCTAGTGCAG” the binding signal was 8150 fluorescence intensity (a.u.).
With “GTCCTGCTGCTTCCGCCGCCGCCACCGTCCTGCTGCTTCCCGGAGTCACCTAGTGCAG” the binding signal was 9500 fluorescence intensity (a.u.).
“GTCCAACTGTCAGTGTGTGTGTGTCACGCGTTCTTCTGACCGGAGTCACCTAGTGCAG” was tested, and the binding signal was 10700 fluorescence intensity (a.u.).
For “TGACTGATTCTTCTTTGTTGACTTTGTTTTTATAACCTTTCGGAGTCACCTAGTGCAG”, the binding signal was 12600 fluorescence intensity (a.u.).
With “ATCCTCATCGATCAAAGGTGCTCCGTCGCTTCATGTTCAACGGAGTCACCTAGTGCAG” the binding signal was 8170 fluorescence intensity (a.u.).
In the case of “CGGCCTGCCTGGCTAGCGTTTCGGCCCATCGATCCGCGCGCGGAGTCACCTAGTGCAG”, the binding signal is reported as 8510 fluorescence intensity (a.u.).
“GATTTTTTTCTGCTGAATTTGTTCGTCCGTTTCAGTTGGACGGAGTCACCTAGTGCAG” was tested, and the binding signal was 9690 fluorescence intensity (a.u.).
With “GGTGTTTGGTTGGAGGGATTAAAGTGGGGCTAAACTTTAGCGGAGTCACCTAGTGCAG” the binding signal was 9950 fluorescence intensity (a.u.).
“GCTTACTTAGGCTGCTCGCTCACGACTTGTTCCTTCCTTACGGAGTCACCTAGTGCAG” was tested, and the binding signal was 9820 fluorescence intensity (a.u.).
